Laboratory results: article PMC7077720, “Improvement of Peptide Affinity and Stability by Complexing to Cyclodextrin-Grafted Ammonium Chitosan” (Polymers, 2020)
Where a SMILES comes first, the peptide text is derived from it. [ ]: non-standard residue; d: D form.

Assay: NMR proton selective relaxation rate measurements of DAL (affinity studies)
Type: binding
Conditions: D2O, 25 °C
[1] = 600 MHz, DAL 0.68 mM, 1:1 MCD/DAL

Row | Compound | bound molar fraction of DAL (equimolar MCD, 0.68 mM, from Ka) [%] | Bi-selective relaxation rate R1^bs of H1^Tyr of DAL (600 MHz, DAL 0.68 mM) [s⁻¹] | Bi-selective relaxation rate R1^bs of H2^Tyr of DAL (600 MHz, DAL 0.68 mM) [s⁻¹] | Bi-selective relaxation rate R1^bs of H3^Phe of DAL (600 MHz, DAL 0.68 mM) [s⁻¹] | Bi-selective relaxation rate R1^bs of H4^Phe of DAL (600 MHz, DAL 0.68 mM) [s⁻¹] | Mono-selective relaxation rate R1^ms of H1^Tyr of DAL [1] [s⁻¹] | Mono-selective relaxation rate R1^ms of H2^Tyr of DAL [1] [s⁻¹] | Mono-selective relaxation rate R1^ms of H3^Phe of DAL [1] [s⁻¹] | Mono-selective relaxation rate R1^ms of H4^Phe of DAL [1] [s⁻¹] | Mono-selective relaxation rate R1^ms of H4a^Leu of DAL [1] [s⁻¹] | Mono-selective relaxation rate R1^ms of H4b^Leu of DAL [1] [s⁻¹] | Mono-selective relaxation rate R1^ms of H5^Phe of DAL [1] [s⁻¹]
1 | 2-methyl-β-cyclodextrin [MCD] | 7 | – | – | – | – | – | – | – | – | – | – | –
2 | CC(C)C[C@H](NC(=O)[C@H](Cc1ccccc1)NC(=O)CNC(=O)[C@@H](C)NC(=O)[C@@H](N)Cc1ccc(O)cc1)C(=O)N[C@@H](CCCNC(=N)N)C(=O)O [DAL, (D-Ala2)-Leu-Enkephalin-Arg] (H-Y[dA]GFLR-OH) | – | 0.39 | 0.61 | 0.63 | 0.55 | 0.36 | 0.58 | 0.62 | 0.54 | 1.69 | 1.59 | 0.66
